The source of these data is PubChem BioAssay AID487 (Columbia University Molecular Screening Center, 2006).

Some of the results follow. Some results for these compounds are left out of this collection, so the calls shown say nothing about other tests.

The nature of the assay: endothelial E-selectin expression blockers – imaging, HUVEC, immunofluorescence, MLSMR starter and 10KST1 sets, primary screen (AID 487).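 Note: 100% = median nuclei count of all wells on the same plate.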 To be noted: HUVEC TNFalpha-induced E-selectin immunofluorescence imaging; measured here: cell number, toxicity; at 2 µM.
`O=C(OC1CN2CCC1CC2)C(CO)(c1ccccc1)c1ccccc1` (stereo unspecified) displayed a nuclei count of 115%.
